The values below come from PMC6341703.

Protein sequences, listed by entry. Tags and fused reporters are not part of them.
UniProt Q8TEW0: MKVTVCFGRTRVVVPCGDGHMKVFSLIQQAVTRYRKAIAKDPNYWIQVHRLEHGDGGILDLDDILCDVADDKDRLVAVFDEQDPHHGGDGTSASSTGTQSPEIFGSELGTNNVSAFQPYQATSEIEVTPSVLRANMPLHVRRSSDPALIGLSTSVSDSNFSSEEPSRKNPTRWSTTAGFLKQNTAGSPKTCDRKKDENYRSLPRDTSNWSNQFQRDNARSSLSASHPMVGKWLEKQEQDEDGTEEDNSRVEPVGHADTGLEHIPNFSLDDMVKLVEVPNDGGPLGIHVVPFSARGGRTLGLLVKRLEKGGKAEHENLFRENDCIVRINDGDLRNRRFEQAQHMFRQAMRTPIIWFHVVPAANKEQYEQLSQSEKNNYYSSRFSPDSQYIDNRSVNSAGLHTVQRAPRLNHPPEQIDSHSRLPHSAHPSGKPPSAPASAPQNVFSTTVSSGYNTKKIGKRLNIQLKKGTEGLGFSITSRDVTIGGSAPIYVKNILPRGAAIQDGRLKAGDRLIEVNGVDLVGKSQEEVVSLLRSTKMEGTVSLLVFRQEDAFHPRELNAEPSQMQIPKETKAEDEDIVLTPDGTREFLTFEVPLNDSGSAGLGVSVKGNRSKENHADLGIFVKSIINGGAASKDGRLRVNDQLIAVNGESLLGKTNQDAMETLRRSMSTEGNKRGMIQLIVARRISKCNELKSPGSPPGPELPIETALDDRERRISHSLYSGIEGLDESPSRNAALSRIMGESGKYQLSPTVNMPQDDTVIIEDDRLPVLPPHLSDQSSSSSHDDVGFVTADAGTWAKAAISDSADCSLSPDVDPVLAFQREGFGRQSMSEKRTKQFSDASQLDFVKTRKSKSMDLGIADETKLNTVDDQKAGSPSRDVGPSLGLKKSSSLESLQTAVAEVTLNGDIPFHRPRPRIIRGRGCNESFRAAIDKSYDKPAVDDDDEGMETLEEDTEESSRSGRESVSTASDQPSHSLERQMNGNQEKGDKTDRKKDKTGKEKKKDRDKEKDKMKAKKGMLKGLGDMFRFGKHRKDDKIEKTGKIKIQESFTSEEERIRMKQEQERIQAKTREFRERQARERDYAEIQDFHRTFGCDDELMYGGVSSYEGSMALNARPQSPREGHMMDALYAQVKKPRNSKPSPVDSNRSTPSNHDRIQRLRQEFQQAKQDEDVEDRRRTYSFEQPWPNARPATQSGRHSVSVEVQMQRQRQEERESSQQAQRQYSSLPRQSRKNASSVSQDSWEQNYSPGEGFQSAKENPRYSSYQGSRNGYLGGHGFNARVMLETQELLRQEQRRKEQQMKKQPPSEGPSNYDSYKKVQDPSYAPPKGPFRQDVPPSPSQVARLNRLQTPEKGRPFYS
UniProt Q7KZI7: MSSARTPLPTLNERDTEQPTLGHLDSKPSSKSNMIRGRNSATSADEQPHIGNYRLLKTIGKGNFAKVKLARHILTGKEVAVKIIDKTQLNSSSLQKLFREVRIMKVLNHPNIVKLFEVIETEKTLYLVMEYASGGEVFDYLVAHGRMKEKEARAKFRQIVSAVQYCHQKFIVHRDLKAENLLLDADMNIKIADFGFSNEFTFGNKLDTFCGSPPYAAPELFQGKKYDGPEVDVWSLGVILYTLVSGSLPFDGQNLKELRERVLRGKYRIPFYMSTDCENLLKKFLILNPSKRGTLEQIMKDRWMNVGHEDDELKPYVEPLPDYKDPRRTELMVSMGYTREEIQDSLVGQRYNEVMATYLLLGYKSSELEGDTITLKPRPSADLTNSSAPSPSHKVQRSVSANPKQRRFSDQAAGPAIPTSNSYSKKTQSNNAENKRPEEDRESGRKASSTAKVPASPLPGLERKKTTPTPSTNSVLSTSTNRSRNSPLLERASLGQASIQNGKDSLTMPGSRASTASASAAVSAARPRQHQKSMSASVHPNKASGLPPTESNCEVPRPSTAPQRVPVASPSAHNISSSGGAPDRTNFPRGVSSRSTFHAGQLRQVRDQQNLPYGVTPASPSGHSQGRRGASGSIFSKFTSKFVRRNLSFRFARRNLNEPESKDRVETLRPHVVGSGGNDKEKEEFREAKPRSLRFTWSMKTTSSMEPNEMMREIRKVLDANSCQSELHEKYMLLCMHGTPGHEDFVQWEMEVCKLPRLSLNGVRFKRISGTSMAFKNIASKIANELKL

No constants are given. Whether binding was seen depends on the method and setting. In cells and extracts the contact can be indirect. Some entries that bind do so weakly or less than the wild type. For some assays here: Where a sequence is shown, tags or fusion partners need not be part of it.

Test [1] addresses T1, Grb2-associated binding protein 1 (Gab1), endogenous (human (endogenous in MDA-MB-231 and SK-BR3)) (UniProt Q13480).
T1 sequence: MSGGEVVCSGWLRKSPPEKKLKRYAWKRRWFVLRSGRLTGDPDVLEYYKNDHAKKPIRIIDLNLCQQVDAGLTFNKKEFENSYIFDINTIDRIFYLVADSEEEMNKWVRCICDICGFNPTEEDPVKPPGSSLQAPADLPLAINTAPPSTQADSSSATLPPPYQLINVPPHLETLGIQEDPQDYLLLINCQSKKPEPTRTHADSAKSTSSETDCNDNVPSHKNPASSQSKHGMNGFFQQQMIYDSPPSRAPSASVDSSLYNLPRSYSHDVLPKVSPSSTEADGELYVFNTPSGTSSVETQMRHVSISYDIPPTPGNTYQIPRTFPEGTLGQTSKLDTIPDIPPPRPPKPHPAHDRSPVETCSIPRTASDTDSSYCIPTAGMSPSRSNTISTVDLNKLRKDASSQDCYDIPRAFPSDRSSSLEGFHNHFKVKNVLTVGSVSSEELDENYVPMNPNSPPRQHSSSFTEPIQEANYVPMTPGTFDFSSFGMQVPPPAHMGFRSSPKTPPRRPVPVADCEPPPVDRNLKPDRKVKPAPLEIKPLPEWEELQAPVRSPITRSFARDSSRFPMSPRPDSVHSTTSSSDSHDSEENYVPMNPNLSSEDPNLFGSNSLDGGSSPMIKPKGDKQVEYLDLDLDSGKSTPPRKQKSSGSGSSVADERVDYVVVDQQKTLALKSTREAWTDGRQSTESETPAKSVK
The experiment in a line: co-IP; endogenous proteins; whole cell lysates of MDA-MB-231 and SK-BR3 (also after stable Gab1 knockdown, shRNA#2); lysis buffer 50 mM Tris pH 7.5, 120 mM NaCl, 0.5% NP-40, 5 mM EDTA; 500 ug protein with 5 ug antibody at 4 C overnight, protein G-sepharose; blot.

For test [2], the target named is T2, Gab1WT, fully functional Gab1 expressed from a lentiviral vector (synonymous mutation of Gab1 for antagonist of Gab1 shRNAs) (human (from the printed RefSeq NM_207123.2)) (UniProt Q13480).
T2 sequence: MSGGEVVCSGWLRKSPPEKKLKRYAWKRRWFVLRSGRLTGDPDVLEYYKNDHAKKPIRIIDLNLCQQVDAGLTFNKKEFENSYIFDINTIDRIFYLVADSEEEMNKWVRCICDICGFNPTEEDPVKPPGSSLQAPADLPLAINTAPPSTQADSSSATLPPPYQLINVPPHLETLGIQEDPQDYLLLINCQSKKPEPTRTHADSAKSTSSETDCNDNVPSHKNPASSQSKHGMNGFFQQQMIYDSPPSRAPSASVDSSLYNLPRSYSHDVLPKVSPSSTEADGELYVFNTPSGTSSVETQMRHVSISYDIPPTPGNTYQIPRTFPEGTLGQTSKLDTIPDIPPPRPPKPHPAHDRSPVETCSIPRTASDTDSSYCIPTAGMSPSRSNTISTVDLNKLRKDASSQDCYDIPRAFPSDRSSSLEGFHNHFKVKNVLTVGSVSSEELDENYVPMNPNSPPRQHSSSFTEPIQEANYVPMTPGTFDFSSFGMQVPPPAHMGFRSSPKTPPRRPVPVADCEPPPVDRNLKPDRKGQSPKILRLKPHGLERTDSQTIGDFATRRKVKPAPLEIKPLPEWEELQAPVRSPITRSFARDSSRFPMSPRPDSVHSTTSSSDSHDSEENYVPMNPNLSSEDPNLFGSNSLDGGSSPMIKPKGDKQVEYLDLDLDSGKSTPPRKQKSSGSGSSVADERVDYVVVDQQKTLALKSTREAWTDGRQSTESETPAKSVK
Kind of test: co-IP; whole cell lysates of MDA-MB-231 and SK-BR3 subclones stably overexpressing Gab1 (231-Gab1OE, SK-Gab1OE) against vector controls; lysis buffer 50 mM Tris pH 7.5, 120 mM NaCl, 0.5% NP-40, 5 mM EDTA; protein G-sepharose; blot.

For test [3], the target named is T2, Gab1WT, fully functional Gab1 expressed from a lentiviral vector (synonymous mutation of Gab1 for antagonist of Gab1 shRNAs) (human (from the printed RefSeq NM_207123.2)). The experiment in a line: co-IP; whole cell lysates of 231-shGab1 (Gab1 knockdown) subclones re-expressing Gab1WT, Gab1MT1, Gab1MT2 or vector; lysis buffer 50 mM Tris pH 7.5, 120 mM NaCl, 0.5% NP-40, 5 mM EDTA; protein G-sepharose; blot.

The target of test [4] is T3, Gab1MT1, Par1b binding domain (152-250aa) deletion mutant of Gab1 (human (from the printed RefSeq NM_207123.2)) (UniProt Q13480).
T3 sequence: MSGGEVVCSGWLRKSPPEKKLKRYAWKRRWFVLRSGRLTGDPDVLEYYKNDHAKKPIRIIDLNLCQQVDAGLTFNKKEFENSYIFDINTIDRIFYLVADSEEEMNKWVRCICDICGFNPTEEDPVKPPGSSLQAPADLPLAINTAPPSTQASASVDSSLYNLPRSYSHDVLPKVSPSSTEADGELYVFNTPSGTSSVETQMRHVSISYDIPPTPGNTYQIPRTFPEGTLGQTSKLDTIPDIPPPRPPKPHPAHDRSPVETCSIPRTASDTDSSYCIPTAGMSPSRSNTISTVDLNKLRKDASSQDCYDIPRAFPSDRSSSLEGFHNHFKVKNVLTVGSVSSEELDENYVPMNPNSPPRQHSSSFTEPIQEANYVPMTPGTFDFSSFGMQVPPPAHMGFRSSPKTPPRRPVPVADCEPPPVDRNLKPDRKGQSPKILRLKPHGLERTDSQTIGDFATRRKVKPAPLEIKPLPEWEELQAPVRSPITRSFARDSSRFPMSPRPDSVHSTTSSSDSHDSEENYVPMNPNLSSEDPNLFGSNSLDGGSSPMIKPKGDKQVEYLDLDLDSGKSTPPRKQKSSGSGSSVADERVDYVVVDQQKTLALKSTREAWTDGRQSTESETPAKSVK
The description is as above.

Test [5] addresses Par3, endogenous (human (endogenous in MDA-MB-231 and SK-BR3)) (UniProt Q8TEW0). The experiment in a line: co-IP; endogenous proteins; whole cell lysates of MDA-MB-231 and SK-BR3 (also after stable Gab1 knockdown, shRNA#2); lysis buffer 50 mM Tris pH 7.5, 120 mM NaCl, 0.5% NP-40, 5 mM EDTA; 500 ug protein with 5 ug antibody at 4 C overnight, protein G-sepharose; blot.
For test [6] the target is unchanged. The experiment in a line: co-IP; whole cell lysates of 231-shGab1 (Gab1 knockdown) subclones re-expressing Gab1WT, Gab1MT1, Gab1MT2 or vector; lysis buffer 50 mM Tris pH 7.5, 120 mM NaCl, 0.5% NP-40, 5 mM EDTA; protein G-sepharose; blot.
Test [7] shares this target. Kind of test: co-IP; whole cell lysates of MDA-MB-231 and SK-BR3 subclones stably overexpressing Gab1 (231-Gab1OE, SK-Gab1OE) against vector controls; lysis buffer 50 mM Tris pH 7.5, 120 mM NaCl, 0.5% NP-40, 5 mM EDTA; protein G-sepharose; blot.

As for “Par1b, endogenous (from UniProt Q7KZI7 1-788)”, the binding entry in test [1] is given as “binds”; in test [2], “binds”; in test [3] it was “binds”; in test [4] it was “binds weakly”.

B1: Grb2-associated binding protein 1 (Gab1), endogenous (protein, UniProt Q13480 1-694)
chain: MSGGEVVCSGWLRKSPPEKKLKRYAWKRRWFVLRSGRLTGDPDVLEYYKNDHAKKPIRIIDLNLCQQVDAGLTFNKKEFENSYIFDINTIDRIFYLVADSEEEMNKWVRCICDICGFNPTEEDPVKPPGSSLQAPADLPLAINTAPPSTQADSSSATLPPPYQLINVPPHLETLGIQEDPQDYLLLINCQSKKPEPTRTHADSAKSTSSETDCNDNVPSHKNPASSQSKHGMNGFFQQQMIYDSPPSRAPSASVDSSLYNLPRSYSHDVLPKVSPSSTEADGELYVFNTPSGTSSVETQMRHVSISYDIPPTPGNTYQIPRTFPEGTLGQTSKLDTIPDIPPPRPPKPHPAHDRSPVETCSIPRTASDTDSSYCIPTAGMSPSRSNTISTVDLNKLRKDASSQDCYDIPRAFPSDRSSSLEGFHNHFKVKNVLTVGSVSSEELDENYVPMNPNSPPRQHSSSFTEPIQEANYVPMTPGTFDFSSFGMQVPPPAHMGFRSSPKTPPRRPVPVADCEPPPVDRNLKPDRKVKPAPLEIKPLPEWEELQAPVRSPITRSFARDSSRFPMSPRPDSVHSTTSSSDSHDSEENYVPMNPNLSSEDPNLFGSNSLDGGSSPMIKPKGDKQVEYLDLDLDSGKSTPPRKQKSSGSGSSVADERVDYVVVDQQKTLALKSTREAWTDGRQSTESETPAKSVK
Regarding B1, the binding entry in test [5] is listed as “binds”.

B2: Gab1MT2, Par3 binding domain (301-400aa) deletion mutant of Gab1 (protein, UniProt Q13480-2)
chain: MSGGEVVCSGWLRKSPPEKKLKRYAWKRRWFVLRSGRLTGDPDVLEYYKNDHAKKPIRIIDLNLCQQVDAGLTFNKKEFENSYIFDINTIDRIFYLVADSEEEMNKWVRCICDICGFNPTEEDPVKPPGSSLQAPADLPLAINTAPPSTQADSSSATLPPPYQLINVPPHLETLGIQEDPQDYLLLINCQSKKPEPTRTHADSAKSTSSETDCNDNVPSHKNPASSQSKHGMNGFFQQQMIYDSPPSRAPSASVDSSLYNLPRSYSHDVLPKVSPSSTEADGELYVFNTPSGTSSVETQMSSQDCYDIPRAFPSDRSSSLEGFHNHFKVKNVLTVGSVSSEELDENYVPMNPNSPPRQHSSSFTEPIQEANYVPMTPGTFDFSSFGMQVPPPAHMGFRSSPKTPPRRPVPVADCEPPPVDRNLKPDRKGQSPKILRLKPHGLERTDSQTIGDFATRRKVKPAPLEIKPLPEWEELQAPVRSPITRSFARDSSRFPMSPRPDSVHSTTSSSDSHDSEENYVPMNPNLSSEDPNLFGSNSLDGGSSPMIKPKGDKQVEYLDLDLDSGKSTPPRKQKSSGSGSSVADERVDYVVVDQQKTLALKSTREAWTDGRQSTESETPAKSVK
Turning to B2, the binding entry in test [6] is given as “binds weakly”.

B3: Gab1WT, fully functional Gab1 expressed from a lentiviral vector (synonymous mutation of Gab1 for antagonist of Gab1 shRNAs) (protein, UniProt Q13480-2 1-724)
chain: MSGGEVVCSGWLRKSPPEKKLKRYAWKRRWFVLRSGRLTGDPDVLEYYKNDHAKKPIRIIDLNLCQQVDAGLTFNKKEFENSYIFDINTIDRIFYLVADSEEEMNKWVRCICDICGFNPTEEDPVKPPGSSLQAPADLPLAINTAPPSTQADSSSATLPPPYQLINVPPHLETLGIQEDPQDYLLLINCQSKKPEPTRTHADSAKSTSSETDCNDNVPSHKNPASSQSKHGMNGFFQQQMIYDSPPSRAPSASVDSSLYNLPRSYSHDVLPKVSPSSTEADGELYVFNTPSGTSSVETQMRHVSISYDIPPTPGNTYQIPRTFPEGTLGQTSKLDTIPDIPPPRPPKPHPAHDRSPVETCSIPRTASDTDSSYCIPTAGMSPSRSNTISTVDLNKLRKDASSQDCYDIPRAFPSDRSSSLEGFHNHFKVKNVLTVGSVSSEELDENYVPMNPNSPPRQHSSSFTEPIQEANYVPMTPGTFDFSSFGMQVPPPAHMGFRSSPKTPPRRPVPVADCEPPPVDRNLKPDRKGQSPKILRLKPHGLERTDSQTIGDFATRRKVKPAPLEIKPLPEWEELQAPVRSPITRSFARDSSRFPMSPRPDSVHSTTSSSDSHDSEENYVPMNPNLSSEDPNLFGSNSLDGGSSPMIKPKGDKQVEYLDLDLDSGKSTPPRKQKSSGSGSSVADERVDYVVVDQQKTLALKSTREAWTDGRQSTESETPAKSVK
Consider B3, for which the binding entry in test [7] and in test [6] was “binds” in each case.
